PubChem BioAssay AID686937 | Drosophila RNAi Screening Center, 2013

Screen: 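Knock-downs that reduce output of a secreted reporter enzyme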 (primary screen)
Cell system: Drosophila S2 cells expressing secreted horseradish peroxidase
Knock-down reagent: long dsRNA against Drosophila genes
Timing: about 5.5 days (5 days dsRNA, then 12 h reporter induction)
Treatment: reporter expression induced after 5 days of dsRNA, read 12 h later; inducer not stated
Read-out: 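Chemiluminescent measurement of peroxidase in the medium 12 h after reporter induction, following 5 days of dsRNA, given as a z-score per plate; higher means more secretion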
Scale: z-score: higher = more reporter secreted into medium
The deposit covers about 23,000 reagents; below is an unselected part of those with a known target gene and a result. 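Reduced-secretion tags in replicate 1 do not always agree with the z-scores; no criterion for assigning the tags was given.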 The record does not give: the amount of reagent.

target gene | DRSC id | z-score, replicate 1 | z-score, replicate 2 | z-score, replicate 3 | z-score, replicate 4 | phenotype, replicate 1
Drep4 (DNA fragmentation factor-related protein 4) | DRSC03408 | 0.6 | 0.4 | – | – | –
CG11350 | DRSC08181 | -1.74 | -0.9 | -0.56 | -1.57 | reduced secretion
narya | DRSC19439 | 0.29 | 0.18 | – | – | –
CG43125 | DRSC13866 | 0.24 | -0.04 | – | – | –
L2HGDH (L-2-hydroxyglutarate dehydrogenase) | DRSC02082 | 0.56 | 0.36 | – | – | –
wuc (Wake-up-call) | DRSC06152 | 0.12 | 0.21 | – | – | –
CG3528 | DRSC00611 | 0.06 | -0.04 | – | – | –
Ras64B (Ras oncogene at 64B) | DRSC08689 | 0 | 0.25 | – | – | –
Cpr67Fa2 (Cuticular protein 67Fa2) | DRSC10315 | 0.11 | 0.27 | – | – | –
CG5078 | DRSC11762 | 0.17 | -0.01 | – | – | –
CG3588 | DRSC18473 | 0.33 | 0.36 | – | – | –
CG32582 (retired record) | DRSC19114 | -0.17 | 1.38 | – | – | –
nub (nubbin) | DRSC01260 | -0.05 | -0.11 | – | – | –
nub (nubbin) | DRSC02498 | 0.28 | 0 | – | – | –
nub (nubbin) | DRSC02499 | 0.93 | 0.65 | – | – | –
nub (nubbin) | DRSC03583 | -0.49 | -0.39 | – | – | –
Sec24AB (Secretory 24AB) | DRSC06478 | -0.87 | -0.94 | – | – | –
Tnpo-SR (Transportin-Serine/Arginine rich) | DRSC00546 | -0.27 | 0.22 | – | – | –
CG3526 | DRSC17240 | 0.36 | 0.53 | – | – | –
CG3526 | DRSC18636 | 0.38 | 0.27 | – | – | –
H15 | DRSC03339 | 0.08 | 0.37 | – | – | –
H15 | DRSC22199 | -0.92 | -0.16 | – | – | –
CG30280 | DRSC21761 | 1.31 | -0.47 | – | – | –
RpL31 (Ribosomal protein L31) | DRSC06716 | -3.48 | -4.09 | – | – | reduced secretion
Gr33a (Gustatory receptor 33a) | DRSC02589 | 0.05 | 0.07 | – | – | –
CG10730 | DRSC02102 | 0.57 | 0.52 | – | – | –
CG14829 | DRSC10199 | 0.39 | 0.42 | – | – | –
gd (gastrulation-defective) | DRSC20336 | 0.2 | 0.41 | – | – | –
Nsun5 (Nop2/Sun-like domain containing protein 5) | DRSC15835 | 0.05 | 0.28 | – | – | –
PNPase (Polynucleotide phosphorylase) | DRSC14304 | 0.45 | 0.37 | – | – | –
Spp (Signal peptide peptidase) | DRSC00328 | 0.34 | 0.19 | – | – | –
CG13538 | DRSC04180 | 0.09 | 0.31 | – | – | –
CG10343 | DRSC02041 | 0.41 | 0.25 | – | – | –
CG16894 | DRSC06634 | 0.29 | 0.29 | 0.35 | 0.3 | –
CG16894 | DRSC21785 | 1.17 | 0.47 | – | – | –
hebe | DRSC05192 | 0.91 | – | – | – | –
hebe | DRSC06605 | 0.42 | 0.49 | 0.4 | 0.47 | –
hebe | DRSC21614 | -0.12 | 0.02 | – | – | –
CG14069 | DRSC02372 | -0.4 | -0.07 | – | – | –
CG10555 | DRSC17748 | -0.76 | -1 | – | – | –
eIF4EHP | DRSC13653 | 0.53 | 0.52 | – | – | –
eIF4EHP | DRSC14265 | 0.14 | 0.17 | – | – | –
kto (kohtalo) | DRSC10983 | 0.45 | 0.47 | – | – | –
CG4582 | DRSC15605 | 0.2 | 0.34 | – | – | –
CG6094 | DRSC02927 | 0.14 | 0.25 | 0.03 | -0.04 | –
CG6094 | DRSC22705 | -0.67 | -0.48 | – | – | –
Rab11 | DRSC16809 | -5.08 | -4.08 | – | – | reduced secretion
CG6978 | DRSC18409 | 0.34 | 0.16 | – | – | –
Adgf-E (Adenosine deaminase-related growth factor E) | DRSC05973 | 0.04 | -0.12 | – | – | –
ssh (slingshot) | DRSC16730 | 0.51 | 0.54 | – | – | –
ATPsyngamma (ATP synthase, gamma subunit) | DRSC14094 | -0.04 | -1.08 | – | – | –
tey (teyrha-meyrha) | DRSC11042 | -3 | 0.34 | -1.97 | 0.56 | –
tey (teyrha-meyrha) | DRSC21709 | 1.44 | 2.93 | – | – | –
RpL37-1 (Ribosomal protein L37-1) | DRSC20149 | 0.32 | -0.38 | -0.19 | -0.95 | reduced secretion
RpL37-1 (Ribosomal protein L37-1) | DRSC21646 | -1.64 | -1.3 | – | – | reduced secretion

Next part, starting with the last 10 of the part before.
target gene | DRSC id | z-score, replicate 1 | z-score, replicate 2 | z-score, replicate 3 | z-score, replicate 4 | phenotype, replicate 1
CG6094 | DRSC22705 | -0.67 | -0.48 | – | – | –
Rab11 | DRSC16809 | -5.08 | -4.08 | – | – | reduced secretion
CG6978 | DRSC18409 | 0.34 | 0.16 | – | – | –
Adgf-E (Adenosine deaminase-related growth factor E) | DRSC05973 | 0.04 | -0.12 | – | – | –
ssh (slingshot) | DRSC16730 | 0.51 | 0.54 | – | – | –
ATPsyngamma (ATP synthase, gamma subunit) | DRSC14094 | -0.04 | -1.08 | – | – | –
tey (teyrha-meyrha) | DRSC11042 | -3 | 0.34 | -1.97 | 0.56 | –
tey (teyrha-meyrha) | DRSC21709 | 1.44 | 2.93 | – | – | –
RpL37-1 (Ribosomal protein L37-1) | DRSC20149 | 0.32 | -0.38 | -0.19 | -0.95 | reduced secretion
RpL37-1 (Ribosomal protein L37-1) | DRSC21646 | -1.64 | -1.3 | – | – | reduced secretion
CG17191 | DRSC15185 | 0.3 | 0.22 | – | – | –
PpV (Protein phosphatase V) | DRSC18700 | -0.13 | 0.15 | – | – | –
conu (conundrum) | DRSC07810 | 0.73 | 0.53 | – | – | –
CG4297 | DRSC00651 | 0.22 | 0.22 | – | – | –
CG9705 | DRSC11094 | 0.39 | 0.37 | – | – | –
CG15530 | DRSC15067 | 0.33 | 0.59 | – | – | –
Ostgamma (Oligosaccharide transferase gamma subunit) | DRSC03074 | -0.09 | 0.06 | – | – | –
Jupiter | DRSC15204 | -0.02 | 0.04 | – | – | –
Jupiter | DRSC15205 | 0.14 | 0.44 | – | – | –
Jupiter | DRSC15389 | 0.24 | 0.06 | – | – | –
Gr93d (Gustatory receptor 93d) | DRSC21941 | 0.13 | 0.11 | – | – | –
CG14205 | DRSC19560 | 0.51 | 0.04 | – | – | –
CG15099 | DRSC06528 | 0.21 | -0.13 | – | – | –
CG31752 | DRSC22599 | -0.49 | -0.29 | – | – | –
CycC (Cyclin C) | DRSC16619 | 0.3 | 0.49 | – | – | –
CG13324 | DRSC06361 | 0.04 | -0.2 | – | – | –
spn-E (spindle E) | DRSC17064 | 0.38 | 0.34 | – | – | –
CG12121 | DRSC17816 | 0.49 | 0.45 | – | – | –
CG32181 | DRSC22635 | 0.08 | -0.05 | – | – | –
CG15772 | DRSC18078 | 0.14 | -0.38 | – | – | –
bic (bicaudal) | DRSC07584 | -0.36 | -0.53 | – | – | –
CG17746 | DRSC08521 | 0.52 | 0.47 | – | – | –
CG32206 | DRSC09602 | 0.16 | 0.28 | 0.27 | 0.11 | –
CG32206 | DRSC10094 | 0.37 | 0.33 | – | – | –
CG32206 | DRSC10095 | 0.22 | 0.23 | – | – | –
CG32206 | DRSC10096 | 0.28 | 0.41 | – | – | –
CG32206 | DRSC11080 | 0.2 | -0.61 | – | – | –
mRpL19 (mitochondrial ribosomal protein L19) | DRSC16367 | 0.17 | 0.25 | 0.33 | 0.21 | –
mRpL19 (mitochondrial ribosomal protein L19) | DRSC21618 | -0.49 | -0.95 | – | – | reduced secretion
Obp83g (Odorant-binding protein 83g) | DRSC12269 | 0.12 | 0.36 | – | – | –
CG13287 | DRSC09961 | 0.68 | 0.55 | – | – | –
Mfap1 (Microfibril-associated protein 1) | DRSC08154 | -0.07 | 0.47 | – | – | –
CG11007 | DRSC06023 | -0.71 | -0.63 | – | – | –
Rcd4 (Reduction in Cnn dots 4) | DRSC02597 | 0.29 | 0.4 | – | – | –
CG17684 | DRSC07724 | 0.11 | -0.34 | – | – | –
CG17684 | DRSC21166 | 0.53 | 0.23 | – | – | –
CG7203 | DRSC03026 | 0.26 | 0.24 | – | – | –
CG6664 | DRSC10690 | -0.14 | 0.06 | – | – | –
ACC (Acetyl-CoA carboxylase) | DRSC06059 | -6.05 | -6.5 | – | – | reduced secretion
ACC (Acetyl-CoA carboxylase) | DRSC07249 | -5.31 | -5.22 | – | – | reduced secretion
lncRNA:CR42646 (long non-coding RNA:CR42646) | DRSC04759 | 0.9 | – | – | – | –
CG4914 | DRSC10458 | 0.24 | 0.2 | – | – | –
Nurf-38 (Nucleosome remodeling factor - 38kD) | DRSC04629 | 0.33 | 0.07 | – | – | –
Best1 (Bestrophin 1) | DRSC16909 | 0.52 | 0.77 | 0.49 | 0.28 | –
CG18234 | DRSC10309 | 0.02 | 0.08 | – | – | –
Tom20 (Translocase of outer membrane 20) | DRSC10899 | 0.19 | 0.24 | – | – | –
CG13069 | DRSC09952 | 0.45 | 0.25 | – | – | –
CG32148 | DRSC09338 | -0.32 | -0.06 | – | – | –
CG14380 | DRSC14840 | 0.22 | 0.63 | – | – | –
